Test results reported in article PMC11807462.
These are yes or no findings as the source states them, for the method shown. In cells and extracts the contact can be indirect. A result given as binding can be weak or reduced; the word gives no strength.

Biological target: T1, LGR5 (human) (UniProt O75473)
T1 sequence: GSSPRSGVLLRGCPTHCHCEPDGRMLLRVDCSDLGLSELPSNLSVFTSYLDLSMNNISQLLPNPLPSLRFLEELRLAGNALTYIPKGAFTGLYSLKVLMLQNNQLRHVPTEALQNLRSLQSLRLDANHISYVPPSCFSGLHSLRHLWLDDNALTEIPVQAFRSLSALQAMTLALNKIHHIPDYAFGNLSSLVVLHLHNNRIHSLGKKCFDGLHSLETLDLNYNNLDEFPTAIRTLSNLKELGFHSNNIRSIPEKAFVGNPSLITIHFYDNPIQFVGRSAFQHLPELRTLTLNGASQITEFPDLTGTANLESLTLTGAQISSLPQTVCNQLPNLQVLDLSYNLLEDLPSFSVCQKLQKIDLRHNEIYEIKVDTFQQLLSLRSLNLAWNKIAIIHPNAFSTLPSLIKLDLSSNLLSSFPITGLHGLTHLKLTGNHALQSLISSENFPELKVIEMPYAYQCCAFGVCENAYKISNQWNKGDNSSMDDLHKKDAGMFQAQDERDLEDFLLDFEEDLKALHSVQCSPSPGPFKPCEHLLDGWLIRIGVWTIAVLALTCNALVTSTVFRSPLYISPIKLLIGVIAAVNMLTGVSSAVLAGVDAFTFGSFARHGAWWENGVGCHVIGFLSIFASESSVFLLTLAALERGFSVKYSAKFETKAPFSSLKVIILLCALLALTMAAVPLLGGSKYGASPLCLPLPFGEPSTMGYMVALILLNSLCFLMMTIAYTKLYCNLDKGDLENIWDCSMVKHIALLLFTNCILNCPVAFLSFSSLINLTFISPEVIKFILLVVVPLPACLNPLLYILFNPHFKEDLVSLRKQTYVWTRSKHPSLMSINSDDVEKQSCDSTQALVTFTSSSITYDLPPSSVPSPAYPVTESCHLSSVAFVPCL
Assay: co-IP; immunoprecipitation (IP) to confirm protein-protein interactions; no further details

binding: binds
Substance: isoform of Urotensin II (iUTS2) (ligand)
